Laboratory results: PubChem BioAssay AID1259254 (NCATS, 2017)
Assay: 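Finding genes that stop cells copying their DNA twice in one cycle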 (primary screen). Cells: human HCT116 colorectal cancer cells. Reagent: single siRNA against human genes. Duration: 3 days. Detection: 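Nuclei stained with Hoechst and imaged; cell-cycle phase assigned by DNA content; G2 share scaled per plate, non-targeting siRNA 0%, GMNN siRNA 100%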. Reading the numbers: G2 robust z-score and G2 cells, % of GMNN control: higher = more G2 cells, more excess DNA replication. Call rule: 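An siRNA counts as active if its G2 robust z-score lies at least 5 MADs above the screen median; here such calls match roughly 38% of GMNN control or more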.
This is an unselected part of about 59,000 reagents. In the full data, about 1,550 (2.6%) are marked active. 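G2 share is only a proxy for re-replication; each gene was hit by three separate siRNAs, and active genes were retested.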 Reagents against one gene are numbered here. Further read-outs or replicates are left out here. Not stated in the record: the amount of reagent.

The first 3 records, to show the layout:
Target gene	siRNA no.	G2 robust z-score	G2 cells, % of GMNN control	activity call
HPR	1	0.805	8.63	inactive
HPR	2	-0.284	0.968	inactive
HPR	3	-0.718	-2.08	inactive

Results, from the first entry:
Target gene	siRNA no.	G2 robust z-score	G2 cells, % of GMNN control	activity call
HPR	1	0.805	8.63	inactive
HPR	2	-0.284	0.968	inactive
HPR	3	-0.718	-2.08	inactive
SPDYE14	1	0.746	8.22	inactive
SPDYE14	2	0.677	7.73	inactive
SPDYE14	3	-0.252	1.2	inactive
RPRD2	1	-1.36	-6.57	inactive
RPRD2	2	-0.00604	2.92	inactive
RPRD2	3	-0.122	2.11	inactive
PLP1	1	0.915	9.41	inactive
PLP1	2	1.46	13.3	inactive
PLP1	3	0.525	6.66	inactive
GJB3	1	0.225	4.55	inactive
GJB3	2	0.145	3.99	inactive
GJB3	3	0.0184	3.1	inactive
UNC50	1	4	31.1	inactive
UNC50	2	-0.14	1.98	inactive
UNC50	3	0.0609	3.4	inactive
KRT80	1	-0.767	-2.43	inactive
KRT80	2	-0.981	-3.93	inactive
KRT80	3	-0.975	-3.89	inactive
RND2	1	0.428	5.98	inactive
RND2	2	1.7	14.9	inactive
RND2	3	4.07	31.6	inactive
PAFAH2	1	-0.282	0.987	inactive
PAFAH2	2	-0.777	-2.5	inactive
PAFAH2	3	0.282	4.95	inactive
STXBP5L	1	1.71	15	inactive
STXBP5L	2	1.01	10.1	inactive
STXBP5L	3	1.28	12	inactive
